From patent US20250180582A1
No constants are given. Whether binding was seen depends on the method and setting. Some binding calls cover weakened binding; strength is not graded here.

Assays:
[1] = biological target: T1, pCold-TF-GPR37-1-265 extracellular segment protein (human) (UniProt O15354); assay: summary of ELISA/EIA results
T1 sequence: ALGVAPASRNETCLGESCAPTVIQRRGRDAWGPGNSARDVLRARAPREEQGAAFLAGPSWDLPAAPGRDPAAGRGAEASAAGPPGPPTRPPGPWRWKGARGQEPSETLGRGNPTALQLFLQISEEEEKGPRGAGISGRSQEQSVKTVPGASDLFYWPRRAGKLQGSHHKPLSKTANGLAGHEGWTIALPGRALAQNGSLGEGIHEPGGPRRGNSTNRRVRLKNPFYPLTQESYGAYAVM

[2] = biological target: T1, pCold-TF-GPR37-1-265 extracellular segment protein (human); assay: indirect ELISA, cell supernatant
[3] = biological target: T1, pCold-TF-GPR37-1-265 extracellular segment protein (human); assay: sandwich EIA; coat 6D2, label 5A2-HRP
[4] = biological target: T2, pET-32a-GPR37-1-613 full-length antigen (human) (UniProt O15354); assay: sandwich EIA; coat 6D2, label 5A2-HRP
T2 sequence: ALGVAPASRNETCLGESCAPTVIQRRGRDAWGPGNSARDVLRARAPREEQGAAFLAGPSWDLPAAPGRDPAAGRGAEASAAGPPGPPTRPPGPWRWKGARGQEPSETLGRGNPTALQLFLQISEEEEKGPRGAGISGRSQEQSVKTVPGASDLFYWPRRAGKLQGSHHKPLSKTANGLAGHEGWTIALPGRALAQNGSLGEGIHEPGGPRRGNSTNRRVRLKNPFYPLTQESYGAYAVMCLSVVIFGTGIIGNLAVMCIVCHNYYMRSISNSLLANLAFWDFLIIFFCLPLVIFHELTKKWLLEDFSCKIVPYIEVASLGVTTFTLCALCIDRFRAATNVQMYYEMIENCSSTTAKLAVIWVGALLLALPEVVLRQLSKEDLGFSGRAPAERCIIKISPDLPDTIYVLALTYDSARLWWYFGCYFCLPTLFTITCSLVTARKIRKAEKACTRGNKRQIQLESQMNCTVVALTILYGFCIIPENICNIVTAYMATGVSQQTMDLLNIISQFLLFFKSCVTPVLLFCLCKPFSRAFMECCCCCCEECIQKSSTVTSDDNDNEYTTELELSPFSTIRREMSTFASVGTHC

Measured: binding

B1: monoclonal antibody 5A2 (antibody, IgG2a, V domains shown)
VH: EVKLVESGGGLVQPGGSLRLSCATSGFIFSDYYMSWVRQPPGKALEWLGYIRNKAKRYTTEYNASVKGRFTISRDNSQNILYLQMNTLRAEDSATYYCARDTSDYDRFAYWGQGTLVTVSA
VL: DIVMTQTPLSLPVSLGDHASLSCKSSQSLVHRNGNTYLHWFLQKPGQSPKLLIYKVSNRFSGVPDRFSGSGSGTDFTLKISRVEAADLGVYFCSQSTLLPYTFGGGTKLEIK
binds: [1] | [2]

B2: monoclonal antibody 6D2 (antibody, IgG2a, V domains shown)
VH: EVMLVESGGGLVKPGGSLKLSCAASGFIFSSQAMSWVRQIPEKRLEWVATISSGGSYTYYPDSVKGRFTISRDNAKNTLYLQMSSLTSEDTAMYYCARQRDFGRYYGYDPFFDFWGQGTTLTF
VL: EIVLTQSPTTMAASPGEKITITCSASSSISSNYLHWYQQKPGFSPKLLIYRTSNLPSGVPARFSGSGSGTSYSLTIGTMEAEDVATYYCQQGSSVPRITFGAGTKLE
binds: all assays above
